Patent publication US11433087B2, “Anti-tumor compound with high CD169 affinity, method thereof, and use thereof” (Xiamen Nuokangde Biological Technology Co., Ltd., priority 2017, dated 2022)

Test system: mouse melanoma cells (B16F10)
Experiment: Distribution of TCC-Neu5Ac in mouse melanoma cells by laser confocal microscope and ImageJ analysis
Type: cell-based

## CC(=O)N[C@@H]1C(O)C[C@](O)(C(=O)O)OC1C(O)C(O)CNC(=O)c1cc2c(s1)-c1ccccc1OC2 (some centres unmarked) [TCC-Neu5Ac, 9-benzopyranothiophene-n-acetylneuraminic acid monosaccharide]
B16F10 cell image analysis, FIG. 3
  distribution on cell surfaces (gray value vs distance, ImageJ dot-plot analysis): mainly distributed on the cell membranes
B16F10 cells, 100 μmol (100 μM), 24 hours, confocal, excitation 405 nm, FIG. 2
  distribution of TCC-Neu5Ac in the mouse melanoma cells: distributed inside of the B16F10 cells and cell membranes of the B16F10 cells
